Measured data: PubChem BioAssay AID1259405 (NCATS, 2018)
Aim: 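Mouse-designed siRNAs used to find CHO productivity engineering targets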 (primary screen). Cell system: Chinese hamster CHO-K1 ovary cells with stable secreted eGFP expression. Knock-down reagent: single siRNA against mouse genes, 0.8 pmol siRNA per well (2 µl of 400 nM stock). Time to read-out: 3 days. Measured: 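Per-well intracellular GFP measured by laser scanning cytometry, plus viability from ATP luminescence, each relative to plate median of non-targeting control wells, in %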. Direction: GFP, % of control: higher = more GFP per well, higher productivity; viability (ATP), % of control: higher = more viable cells (more ATP). Hit rule: 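a knock-down is called active if GFP reaches 120% or more of non-targeting control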.
In all, the deposit lists about 50,000 reagents; below is an unselected part. Over the whole deposit, about 4,000 (8%) were called active. 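Mouse siRNA library applied to hamster cells; one well for each siRNA.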 Reagents against one gene are numbered here. Reagent sequences are not shown.

The opening 2 records, ahead of the listing:
Gene	reagent no.	GFP, % of control	viability (ATP), % of control	outcome
Fam187b	1	110	103	inactive
Fam187b	2	94.9	80.2	inactive

Main list, from the start:
Gene	reagent no.	GFP, % of control	viability (ATP), % of control	outcome
Fam187b	1	110	103	inactive
Fam187b	2	94.9	80.2	inactive
Fam187b	3	98.9	96.1	inactive
Cops5	1	71.5	67.8	inactive
Cops5	2	83	82	inactive
Sfpq	1	119	109	inactive
Sfpq	2	69	87.6	inactive
Tll2	1	97.6	97.2	inactive
Tll2	2	92.3	90.5	inactive
Ces2a	1	95.2	109	inactive
Ces2a	2	66.5	81.1	inactive
Ces2a	3	57.8	68.9	inactive
Spata31d1d	1	63.5	70.7	inactive
Spata31d1d	2	112	75.2	inactive
Spata31d1d	3	76.6	108	inactive
Krtap6-1	1	52.6	75.8	inactive
Krtap6-1	2	125	75.1	active
Krtap6-1	3	74.7	67.4	inactive
Ruvbl1	1	57.7	61.4	inactive
Ruvbl1	2	146	84.2	active
Ruvbl1	3	79.5	79.5	inactive
Kbtbd2	1	58.2	68.8	inactive
Kbtbd2	2	60.4	79.4	inactive
Kbtbd2	3	99.4	80	inactive
Cd63	1	69.3	45.7	inactive
Cd63	2	54	67	inactive
Cd63	3	68.6	67.5	inactive
Or5p59	1	36.4	30.4	inactive
Or5p59	2	96.9	26.5	inactive
Or5p59	3	98.3	86.3	inactive
Scgb3a2	1	73	45.5	inactive
Scgb3a2	2	74.8	70.9	inactive
Scgb3a2	3	77.2	80.7	inactive
Txndc2	1	66.1	70.6	inactive
Txndc2	2	54.8	61.8	inactive
Txndc2	3	67.7	61.2	inactive
Vcl	1	56	90.2	inactive
Vcl	2	105	97.3	inactive
Bend6	1	96.6	94.2	inactive
Bend6	2	53.9	42.6	inactive
Bend6	3	59.5	60.7	inactive
Rdh18-ps	1	25.6	21	inactive
Rdh18-ps	2	67	84.8	inactive
Rdh18-ps	3	75.6	74.3	inactive
Kcnab1	1	91.6	78	inactive
Kcnab1	2	95.9	69.7	inactive
Kcnab1	3	83.5	72	inactive
Creb3l3	1	49.2	43.2	inactive
Creb3l3	2	60.9	57	inactive
Creb3l3	3	98.2	97.1	inactive
Wnt7a	1	80.6	68.9	inactive
Wnt7a	2	54.5	49.5	inactive
Wnt7a	3	59.1	63.6	inactive
Hnrnpl	1	59.3	57.1	inactive
Hnrnpl	2	52.8	40.2	inactive
Hnrnpl	3	100	50.4	inactive
Zfp526	1	63.8	68.4	inactive
Zfp526	2	60	65.6	inactive
Zfp526	3	37.3	42.2	inactive
Zfat	1	26.9	47.4	inactive
Zfat	2	68.9	67.6	inactive
Zfat	3	42.6	51.2	inactive
Cdc27	1	95.2	105	inactive
Cdc27	2	75.6	90.5	inactive
Cdc27	3	126	111	active
Krt42	1	56.4	59.1	inactive
Krt42	2	70.2	80.7	inactive
Krt42	3	55	48.6	inactive
Usp9x	1	76.6	96.7	inactive
Usp9x	2	54.5	54.8	inactive
Usp9x	3	69.4	64.4	inactive
Or5b24	1	82.2	85.3	inactive
Or5b24	2	69.5	86	inactive
Or5b24	3	76.2	55.2	inactive
Rps28	1	57.7	57.3	inactive
Rps28	2	133	82	active
Rps28	3	49.9	27.1	inactive
Fsd2	1	86.3	69.3	inactive
Fsd2	2	44.9	59.4	inactive
Fsd2	3	86.8	74.1	inactive
Stx6	1	125	125	active
Stx6	2	75.6	69.9	inactive
Kptn	1	75.3	90.3	inactive
Kptn	2	56.7	58.7	inactive
Kptn	3	107	82.7	inactive
